The source of these data is patent publication US20060153931A1, “Prevention of flap necrosis in plastic surgery” (priority 2001, published 2006).

The subject of the experiment is skin flaps based on the epigastric artery and vein. The experiment can be described thus: Rat epigastric skin flap model, ET-1 induced pedicle vasoconstriction (Background Example 1). It counts as in vivo, rats. As to conditions: for flap blood flow: laser Doppler.
Setting [1] is: 30 min after application, 2% lidocaine or 10^−4M ENO, 15 min after ET-1, mean±SEM.

On to `CCN(CC)CC(=O)Nc1c(C)cccc1C` [lidocaine], for which the “overall effect on arterial dilation and blood flow (in words)” value (2% lidocaine vs 10^−4M ENO) is recorded as “faster effect”. Also, the arterial diameter is reported as 101±6 % of baseline (1 min after application (lidocaine: within 1 min), 2% lidocaine or 10^−4M ENO, 15 min after ET-1, mean±SEM) and 82±6 % of baseline under setting [1]. The flap blood flow is 87±13 % of baseline (2 min after application, 2% lidocaine or 10^−4M ENO, 15 min after ET-1, mean±SEM) and 55±7 % of baseline under setting [1]. Besides, the vein diameter under setting [1] is 68±7 % of baseline.
